In PMC2935449:
Results are given in words; binding and its absence hold for the method and conditions named. In cells and extracts the contact can be indirect. Here binding means that the protein was enriched with, or labelled near, the bait; the list need not be complete. One block for each molecule: values may come before it.

The chains behind the UniProt entries cited, without tags or fusion partners.
UniProt Q9UTN6: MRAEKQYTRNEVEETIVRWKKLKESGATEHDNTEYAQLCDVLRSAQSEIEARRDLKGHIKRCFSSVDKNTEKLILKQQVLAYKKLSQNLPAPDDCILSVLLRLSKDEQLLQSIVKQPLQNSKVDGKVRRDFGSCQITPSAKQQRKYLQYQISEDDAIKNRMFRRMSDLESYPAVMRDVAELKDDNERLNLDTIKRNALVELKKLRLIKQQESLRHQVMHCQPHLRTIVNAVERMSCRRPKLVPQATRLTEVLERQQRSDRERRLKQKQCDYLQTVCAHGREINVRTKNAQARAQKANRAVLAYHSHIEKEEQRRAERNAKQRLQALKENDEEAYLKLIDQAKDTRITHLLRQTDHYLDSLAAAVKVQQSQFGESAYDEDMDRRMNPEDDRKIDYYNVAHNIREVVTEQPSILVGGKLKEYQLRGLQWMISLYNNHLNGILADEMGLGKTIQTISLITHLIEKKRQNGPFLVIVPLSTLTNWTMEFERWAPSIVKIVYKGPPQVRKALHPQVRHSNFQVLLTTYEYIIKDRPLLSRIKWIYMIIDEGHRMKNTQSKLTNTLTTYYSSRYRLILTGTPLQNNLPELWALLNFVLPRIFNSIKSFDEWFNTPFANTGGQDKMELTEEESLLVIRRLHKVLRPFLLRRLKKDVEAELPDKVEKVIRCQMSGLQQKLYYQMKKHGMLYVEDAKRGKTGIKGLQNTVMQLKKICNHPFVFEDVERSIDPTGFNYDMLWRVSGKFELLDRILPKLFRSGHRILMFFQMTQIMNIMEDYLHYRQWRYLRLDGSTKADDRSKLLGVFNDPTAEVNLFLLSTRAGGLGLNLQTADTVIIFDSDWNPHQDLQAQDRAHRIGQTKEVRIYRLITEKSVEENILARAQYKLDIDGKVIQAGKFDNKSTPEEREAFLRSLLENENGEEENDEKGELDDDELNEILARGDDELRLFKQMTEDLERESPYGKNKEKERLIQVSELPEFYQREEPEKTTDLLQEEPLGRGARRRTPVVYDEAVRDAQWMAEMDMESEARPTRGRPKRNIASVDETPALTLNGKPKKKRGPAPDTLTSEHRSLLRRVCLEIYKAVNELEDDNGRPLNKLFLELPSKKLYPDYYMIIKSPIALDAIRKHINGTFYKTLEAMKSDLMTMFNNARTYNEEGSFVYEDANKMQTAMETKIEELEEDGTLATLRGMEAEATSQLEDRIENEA

Assays:
TAP-Ubp1 (S. pombe) = molecular target: T1, TAP-Ubp1 (S. pombe) (UniProt Q9USM5); assay: affinity purification with mass spectrometry; bait N-terminally TAP-tagged, expressed at low levels from the nmt81 promoter (pREP81-TAP), tandem affinity purification from native S. pombe lysate, 2D LC-MS/MS; duplicates
T1 sequence: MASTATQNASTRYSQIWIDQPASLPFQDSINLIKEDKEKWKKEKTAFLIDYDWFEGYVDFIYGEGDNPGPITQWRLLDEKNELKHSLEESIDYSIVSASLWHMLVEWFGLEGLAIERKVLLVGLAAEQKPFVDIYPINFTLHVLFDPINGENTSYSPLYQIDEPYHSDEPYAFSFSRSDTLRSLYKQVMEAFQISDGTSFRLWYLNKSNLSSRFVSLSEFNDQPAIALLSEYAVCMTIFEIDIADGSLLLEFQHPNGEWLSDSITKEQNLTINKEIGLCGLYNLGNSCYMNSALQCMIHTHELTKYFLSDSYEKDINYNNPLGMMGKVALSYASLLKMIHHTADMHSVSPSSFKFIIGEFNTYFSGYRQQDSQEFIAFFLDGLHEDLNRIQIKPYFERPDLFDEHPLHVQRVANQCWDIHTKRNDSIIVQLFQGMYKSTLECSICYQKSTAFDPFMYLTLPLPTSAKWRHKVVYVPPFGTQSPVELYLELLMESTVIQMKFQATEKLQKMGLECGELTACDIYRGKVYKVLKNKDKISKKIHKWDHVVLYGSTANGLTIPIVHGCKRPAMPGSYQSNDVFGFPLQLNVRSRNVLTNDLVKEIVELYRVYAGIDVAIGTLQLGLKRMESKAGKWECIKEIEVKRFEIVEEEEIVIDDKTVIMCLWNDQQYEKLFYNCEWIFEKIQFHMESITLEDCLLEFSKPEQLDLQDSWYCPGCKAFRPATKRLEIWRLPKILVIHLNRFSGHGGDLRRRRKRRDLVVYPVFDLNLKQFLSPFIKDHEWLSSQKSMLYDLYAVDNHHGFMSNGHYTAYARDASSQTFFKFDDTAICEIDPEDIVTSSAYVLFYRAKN

Ftp105-TAP (S. pombe) = assay: affinity purification with mass spectrometry; bait endogenously TAP-tagged at its C-terminus, tandem affinity purification from native S. pombe lysate, co-purified proteins identified by 2D LC-MS/MS; duplicates, only proteins found in both replicates
Bun62-TAP (S. pombe) = molecular target: T2, Bun62-TAP (S. pombe) (UniProt Q10437); assay: as above
T2 sequence: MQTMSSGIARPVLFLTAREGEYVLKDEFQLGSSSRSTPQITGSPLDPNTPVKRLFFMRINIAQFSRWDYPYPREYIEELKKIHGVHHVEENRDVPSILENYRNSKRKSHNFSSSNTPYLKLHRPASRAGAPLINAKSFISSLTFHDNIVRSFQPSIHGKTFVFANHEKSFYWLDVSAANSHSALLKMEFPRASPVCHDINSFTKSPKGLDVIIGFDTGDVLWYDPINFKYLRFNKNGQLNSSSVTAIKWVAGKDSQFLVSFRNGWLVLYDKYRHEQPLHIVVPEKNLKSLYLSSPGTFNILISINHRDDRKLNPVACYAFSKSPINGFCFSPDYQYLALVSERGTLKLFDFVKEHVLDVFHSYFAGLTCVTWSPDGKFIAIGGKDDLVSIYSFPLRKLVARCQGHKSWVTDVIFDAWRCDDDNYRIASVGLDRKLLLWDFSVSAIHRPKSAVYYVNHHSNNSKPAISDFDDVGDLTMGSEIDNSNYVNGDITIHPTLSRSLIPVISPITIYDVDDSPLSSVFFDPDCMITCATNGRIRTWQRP

Ubp6-TAP (S. pombe) = molecular target: T3, Ubp6-TAP (S. pombe) (UniProt Q92353); assay: as above
T3 sequence: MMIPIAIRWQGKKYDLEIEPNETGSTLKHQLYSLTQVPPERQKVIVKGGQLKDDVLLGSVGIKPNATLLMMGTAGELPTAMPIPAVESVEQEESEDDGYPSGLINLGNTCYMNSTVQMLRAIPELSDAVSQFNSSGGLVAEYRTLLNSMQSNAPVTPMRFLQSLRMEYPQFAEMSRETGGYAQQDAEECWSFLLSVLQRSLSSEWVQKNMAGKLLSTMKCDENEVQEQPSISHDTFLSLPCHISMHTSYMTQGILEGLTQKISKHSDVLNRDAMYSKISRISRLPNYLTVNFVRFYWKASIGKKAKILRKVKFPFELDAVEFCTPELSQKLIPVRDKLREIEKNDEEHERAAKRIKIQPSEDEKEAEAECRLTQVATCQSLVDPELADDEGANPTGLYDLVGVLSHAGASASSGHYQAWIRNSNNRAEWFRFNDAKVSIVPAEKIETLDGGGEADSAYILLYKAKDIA

B1: Ubp5 (enzyme, UniProt Q09879 1-1108)
chain: MVTGETLVDSQKSLINNDTLLNEKLKEDFEENVSIDVKIHEELRRALPDYEESGFQRFTWHIKSWHELDRRAVSPQFAVGSRQFKITYFPQGTLQSAGFTSIFLEYIPSEEEKLSNKYGCCCQFAFVISNPRKPSLSVANSAHCRFSPEIVDWGFTQFAELKKLLCRQAPDVPPIVEDGALLLTAYVRILKDPTGVLWHSFNDYDSKIATGYVGLKNQGATCYMNSLLQSLYIIHAFRRIVYQIPTDSPQGKDSIAYALQRCFYNLQFMNEPVSTTELTKSFGWDSLDSFMQHDVQEFNRVLQDNLERSMRDTKVENALTNLFVGKMKSYIACVNVNFESARSEDYWDIQLNVKGMKNLEDSFRSYIQVETLEGDNCYFADTYGFQEAKKGVIFESFPPILHLQLKRFEYDFERDMMIKINDRYEFPLEFDAKAFLSPEADQSQNCEYVLYGVLVHSGDLHNGHYYALLKTEKDGPWYKYDDTRVTRATLREVLEENYGGDYIMHPPFRSPVKLKRFMSAYMLLYLRKDKLDELMNPVSADEIPEHLKEALNPSIQLAELRRKERLESHLYTKVQLITPEFYSEHHEFDIADFGNAYKEETIPQFRIKKEAKFSEFIPIVAEKLGYPQECMRFWYVVKRHNCTVRVESPVNELNSTMEEVKNVWNSQGEILRLYLEITPENELSSSLTHQNTGEWNAFIFVKYFDRKSQEISGCGTLHVNKSDEIRSICPLLCERANLPKNTPLNIYEEIKPGMVDFLRLEKTFTQSELSTGDIICFEPCRPSALEDDIVNSGFDSALKLYDFLSNKVLVLFRPRFIDQDSIIEFEMLLDRRIKYDDLCIELGQKLGIGADHIRLTTCNPLTYSAGMVVPNDSNITLYEILYSSEEEMPSNVIFYETMDVSLSDLDRKRLVRLRWLVDGLANIELVEAYINKSGDINDLFGAVCERFPDSDLRKKKVRVYEVFESRYHRDLSLRTLIRTINPAATLVGEVVPLDQLQLYPEEKIVQVHHFHKDIARIHGIPFSFVIKPQEKFIDTKLRLAARTQYPESIFSVIKFCVVDFDNNRVVYLNDEDITYDVVEKLNGTLALDRAKKDSKKPNILDRAIQMKN
binding (Ftp105-TAP (S. pombe)): binds

B3: Rpn1/Mts4 (protein, UniProt P87048 1-891)
chain: MSSKDISSKSPSGNDALNDKKGTKTSETNDRNSTNNTKERDELEDLSEEDLQLKNDLELLVQAVQDATPELVGSSLTQLKEIIRTSTSSMTAVPKPLKFLRPHYFTLVKIYDSWPQSPQKTQLADILSVLGMSYSNTSKHESLKYRLQGVTTDPSLWGHEYVRHLASEIEEEFASRQEEEAPTDDLMELALTIVPFFLTHNAEADAIDLLQELGAIEKVVPFVELDNASRVCLYITSCVNLLPFPEDVAMLRTAHAIYRKFDQLTQALNVAIRLDDMSLIKEDCEAATDPLLKKQMSYMLARQQIPMDMGDEELNDALNNTHLSDHFHYLGKELNLMDPKVPEDIFKTHLEVARTGLGASGVYSAKQNLANTFVNALVNAGYSNDRLILVDDEKTSWIYKNKESGLISATASIGLLQLWNVDMGLSLLDKYLYSSEENTKAGALLGIGVTNVAVRNEADPAMAILSEYLETGSVKLRASAILGLGLAYSGANREDLLDMLSPIVTDTDCPMQLSCLAALSLGLIFVGTCNGDVASTILQTLMEREESAQNDQWGRFMALGLALLFNGKQDLADATVETLKAIEGKIARQAEILVDICSYAGTGNVLHIQKLLHICSEPPSDDAKESETTIQTFAALGVATIAMGEDIGAEMVLRHFDHMMHYGEPSIRKAIPLALGLLSASNPQMRIFDTLSRYSHDNDLDVAYNAIFAMGLVGAGTSNARLAQLLRQLASYYHKESNALFMVRIAQGLLYLGKGTMTLNPYHTERQILGQTAFAGLMTVVLAMLDANTFVLDTSHWLLYAITLAIRPRMLITLGEDGQYLPVSVRVGQAVDVVGQAGRPKVITGWVTHTTPVLLHHNERAELATEAYTPLTSLEGIVILKKNTEDIEMTA
binding (Ubp6-TAP (S. pombe)): binds

Second part, the molecule after the results:

binding (TAP-Ubp1 (S. pombe)): binds
Molecule: Snf21 (from UniProt Q9UTN6 1-1199)

binding (Bun62-TAP (S. pombe)): binds
B2: Ubp9 (enzyme, UniProt Q9P7V9 1-585)
chain: MSLLRWMGMNSPGSTDRRKSTWEAELPKPSIRPETLTDRFYGLTNYGNTCYVSSVLVSLYHLKPFRDSLNSYPLPSAPPNFKSVCTKTNHPESSSSRHSKKKSMENRKSSLYGSNGINSCGCVDISNVGSESGTKHQIVVGESNCSAYGMKENIYTCLKDLYCSVSCCDCRYGICSPERFIQVLRRDNEAFRSTQQQDAHEFFNFLLNSVTETLDEYYGNHSDVMHPKWVHSLFEGTLTSETKCLTCENITSRDESFLDLSIDIENHTSVTSCLRSFSASEMLSSKNKFHCDVCKSLQEAEKRMKIKKLPKILSLHLKRFKYNETQEGHDKLFYTIVFTNEMRLFTTTEDAENAERMYYLSSVIVHVGGGPHRGHYVSIVRTKTYGWVLFDDENVTPVNENYLQRFFGDQPGQATAYVLFYTAADEEDDDVSEVDTKESIKPMSIPSQLKQESVEVSNLSSTPRSNSTITYPDMDPMVASFSSQYSHKTLDRDINSRSYFDREPSLDAERFHSRSVDASPKAVRRESRSFFPSLTRKRSKFFGSSQSNSPKDSPLRDTHKSSDEHSESKHSHTLPWQFSRSRSKR
